The supplement of paper PMC12889115
The list shows a part of the results. Values are raw readings; no control value is given beside them.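 In the initial screen, polymyxin B was used at a concentration that permeabilizes Salmonella's outer membrane but not its inner membrane. Maximum growth was set by DMSO wells with or without polymyxin B. Since plates varied, data were ranked per plate, and compounds giving the lowest OD600 advanced as hits.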

System: Salmonella enterica serovar Typhimurium SL1344
Assay: bacterial growth OD600 after 18 h with compound and polymyxin B; higher = more bacterial growth (less inhibition)
Conditions: 50 µM, Mueller-Hinton broth

Compound | bacterial growth OD600 (polymyxin B 0.75 µg/mL) | bacterial growth OD600 (polymyxin B 1 µg/mL)
O=C(CSc1ccc2nnc(-c3cccnc3)n2n1)NCC1(N2CCOCC2)CCCCCC1 | 0.912 | 
COc1ccc(S(=O)(=O)NCC2CCCN(Cc3cc(C(C)C)[nH]n3)C2)cc1 (stereo unspecified) | 1 | 
Cc1ccccc1CCN1CCCC(CN(C)C(=O)Cc2ccsc2)C1 (stereo unspecified) |  | 0.776
COc1cccc(OCc2cc(C(=O)NCC(C)c3ccccc3)no2)c1 (stereo unspecified) | 0.561 | 
CC#CCN1C(=O)NC(Cc2cccc(F)c2)(C2CCN(C(=O)CC3=CCCCC3)CC2)C1=O (stereo unspecified) | 0.832 | 
CCN1CCN(C(=O)CCC2CCN(C(=O)c3sccc3C)CC2)CC1 |  | 0.998
Cn1c(CNC(=O)CCC2(Cc3cccs3)CCC(=O)N2)nc2cc(C(F)(F)F)ccc21 (stereo unspecified) | 0.739 | 
CCOC(=O)C1(Cc2ccc(F)cc2)CCCN(C(=O)c2cn3c(C)cccc3n2)C1 (stereo unspecified) |  | 0.004
CCOC(=O)C1(Cc2ccc(Cl)cc2)CCN(CC(O)CO)CC1 (stereo unspecified) |  | 0.826
CC(C)Cn1cc(C(=O)NCCc2cccs2)c(=O)c(C(=O)N2CCCCCC2)c1 | 0.784 | 
CCOC(=O)N1CCC(NC(=O)C2CC23CCN(C(=O)C2(c4ccc(Cl)cc4)CC2)CC3)CC1 (stereo unspecified) | 0.86 | 
CCN(C)C(=O)[C@H]1C[C@@](CC(C)C)(C(=O)OC)N(C)[C@H]1c1cccnc1 | 0.834 | 
O=C(NCCOc1ccccc1)C1CCC(=O)N(C2CC2)C1 (stereo unspecified) |  | 0.932
COc1ccc(CCN2C(=O)O[C@@H]3CN(c4ncccn4)C[C@@H]32)cc1 | 0.866 | 
CCN(CC1CCCN(CCc2cccc(F)c2)C1)C(=O)CN1CCCCC1=O (stereo unspecified) | 0.801 | 
Cc1cc(C)n(CC(=O)N2CCCC(CCC(=O)N3CCN(c4ccccn4)CC3)C2)n1 (stereo unspecified) |  | 0.883

Molecules above that contain a Cl atom, in the order listed:
Compound | bacterial growth OD600 (polymyxin B 0.75 µg/mL) | bacterial growth OD600 (polymyxin B 1 µg/mL)
CCOC(=O)C1(Cc2ccc(Cl)cc2)CCN(CC(O)CO)CC1 (stereo unspecified) |  | 0.826
CCOC(=O)N1CCC(NC(=O)C2CC23CCN(C(=O)C2(c4ccc(Cl)cc4)CC2)CC3)CC1 (stereo unspecified) | 0.86 | 

Remaining list, next part.

Compound | bacterial growth OD600 (polymyxin B 0.75 µg/mL) | bacterial growth OD600 (polymyxin B 1 µg/mL)
COCc1noc(-c2ccc(OCC3(C)CCCNC3)nc2)n1 (stereo unspecified) |  | 0.939
COc1cccc(-c2cnc(-c3ccncc3)nc2C2CCN(Cc3ccc(OC)cc3O)CC2)c1 | 0.894 | 
COc1cc(C(=O)N2CCCC(Nc3ccc(C)c(C)c3)C2)cc(OC)c1OC (stereo unspecified) |  | 0.935
O=C(NCCC1COc2ccccc2O1)c1ccc(N[C@H]2CC[C@H](O)CC2)nc1 (stereo partly specified) | 0.753 | 
Cc1ccc2c(c1)CN(CC(=O)NCc1cn3c(n1)SCC3)CC(c1ccsc1)O2 (stereo unspecified) | 0.009 | 
Cc1nc(-c2ccncc2)ncc1C(C)NC(=O)c1c(F)cccc1F (stereo unspecified) |  | 0.911
CN(C(=O)Cn1cccn1)C(Cc1ccccc1)C1CCN(C(=O)c2cccc(C(F)(F)F)c2)CC1 (stereo unspecified) | 0.844 | 
COc1cccc(OCc2nc(C(=O)NC3(c4ccccc4)CC3)co2)c1 |  | 0.89
CSc1ccc(CNC(=O)C2CCC(=O)N(Cc3ccccn3)C2)cc1 (stereo unspecified) |  | 1.13
Cc1noc(C)c1CCCNC(=O)c1ccc(N2CCN(C)CC2)nc1 |  | 1.14
CC1(C)CC(Nc2ccc(C(=O)NCCCc3ccccn3)cn2)CCO1 (stereo unspecified) |  | 0.956
CSc1cccc(CN2CCN(Cc3ccccc3F)C(CCO)C2)c1 (stereo unspecified) |  | 0.916
Cc1cc(C)c(CNC(C)c2cnc(-c3ccncc3)nc2C)cc1C (stereo unspecified) |  | 0.574
COc1ccc(OC2CCN(C(=O)C3CC3)CC2)c(C(=O)NC(C)C2CC2)c1 (stereo unspecified) |  | 1.11
COCCCN1C(=O)CC(CC(=O)N2CCN(C(=O)c3ccco3)CC2)(c2ccccc2C)C1=O (stereo unspecified) | 0.863 | 
